Results from patent US20230174623A1.
No constants are given. Whether binding was seen depends on the method and setting. Binding calls can cover weak binding; strength is not graded here. For some of these results: Sequences can lack the tags named with a protein.

Key:
[1] = molecular target: collagen type I (collagen I coated 96 well-plates, Gibco); assay: ELISA, collagen I coated plate (Example 2)
[2] = molecular target: collagen type IV (collagen IV coated 96 well-plates, Corning); assay: ELISA, collagen IV coated plate
[3] = molecular target: collagen type IV (collagen IV coated 96 well-plates, Corning); assay: ELISA on collagen IV coated plate, anti-6xHis-HRP
[4] = molecular target: collagen type I (collagen I coated 96 well-plates, Gibco); assay: ELISA, collagen I coated plate
[5] = molecular target: collagen type I (collagen I coated 96 well-plates, Gibco); assay: ELISA on collagen I coated plate, anti-6xHis-HRP
[6] = molecular target: collagen type I (collagen I coated 96 well-plates, Gibco); assay: competition ELISA on collagen I; 50 nM biotinylated lumican detected with streptavidin-HRP, rmLAIR1 varied
[7] = molecular target: collagen type I (collagen I coated 96 well-plates, Gibco); assay: ELISA on collagen I, anti-His-HRP
[8] = molecular target: collagen type I (collagen I coated 96 well-plates, Gibco); assay: ELISA and competition ELISA on collagen I, competitor biotinylated lumican
[9] = molecular target: collagen type I (collagen I coated 96 well-plates, Gibco); assay: ELISA, collagen type I, anti-His-HRP detection
[10] = molecular target: collagen type I (collagen I coated 96 well-plates, Gibco); assay: ELISA, left panel Collagen I, anti-6xHis-HRP
[11] = molecular target: collagen type IV (collagen IV coated 96 well-plates, Corning); assay: ELISA, right panel Collagen IV, anti-6xHis-HRP
[12] = molecular target: collagen type IV (collagen IV coated 96 well-plates, Corning); assay: closing sentence of the example on its collagen binding assay
[13] = molecular target: collagen type I (collagen I coated 96 well-plates, Gibco); assay: as above

Measured: binding

B1: Lumican-Gluc (His-tagged murine lumican fused to Gaussia luciferase) (protein)
chain: QYYDYDIPLFMYGQISPNCAPECNCPHSYPTAMYCDDLKLKSVPMVPPGIKYLYLRNNQIDHIDEKAFENVTDLQWLILDHNLLENSKIKGKVFSKLKQLKKLHINYNNLTESVGPLPKSLQDLQLTNNKISKLGSFDGLVNLTFIYLQHNQLKEDAVSASLKGLKSLEYLDLSFNQMSKLPAGLPTSLLTLYLDNNKISNIPDEYFKRFTGLQYLRLSHNELADSGVPGNSFNISSLLELDLSYNKLKSIPTVNENLENYYLEVNELEKFDVKSFCKILGPLSYSKIKHLRLDGNPLTQSSLPPDMYECLRVANEITVNGGGSGGGSGGGSKPTENNEDFNIVAVASNFATTDLDADRGKLPGKKLPLEVLKEMEANARKAGCTRGCLICLSHIKCTPKMKKFIPGRCHTYEGDKESAQGGIGEAIVDIPEIPGFKDLEPMEQFIAQVDLCVDCTTGCLKGLANVQCSDLLKKWLPQRCATFASKIQGQVDKIKGAGGDGGGSHHHHHH
binds: [1] | [2] | [3] | [4] | [5]

B2: extracellular domain of His-tagged murine LAIR-1 (receptor)
chain: QEGSLPDITIFPNSSLMISQGTFVTVVCSYSDKHDLYNMVRLEKDGSTFMEKSTEPYKTEDEFEIGPVNETITGHYSCIYSKGITWSERSKTLELKVIKENVIQTPAPGPTSDTSWLKTYSIYHHHHHH
binds: [6] | [7] | [8] | [9]

B3: Lumican-MSA-Fn3 (protein)
chain: QYYDYDIPLFMYGQISPNCAPECNCPHSYPTAMYCDDLKLKSVPMVPPGIKYLYLRNNQIDHIDEKAFENVTDLQWLILDHNLLENSKIKGKVFSKLKQLKKLHINYNNLTESVGPLPKSLQDLQLTNNKISKLGSFDGLVNLTFIYLQHNQLKEDAVSASLKGLKSLEYLDLSFNQMSKLPAGLPTSLLTLYLDNNKISNIPDEYFKRFTGLQYLRLSHNELADSGVPGNSFNISSLLELDLSYNKLKSIPTVNENLENYYLEVNELEKFDVKSFCKILGPLSYSKIKHLRLDGNPLTQSSLPPDMYECLRVANEITVNGGGSGGGSEAHKSEIAHRYNDLGEQHFKGLVLIAFSQYLQKCSYDEHAKLVQEVTDFAKTCVADESAANCDKSLHTLFGDKLCAIPNLRENYGELADCCTKQEPERNECFLQHKDDNPSLPPFERPEAEAMCTSFKENPTTFMGHYLHEVARRHPYFYAPELLYYAEQYNEILTQCCAEADKESCLTPKLDGVKEKALVSSVRQRMKCSSMQKFGERAFKAWAVARLSQTFPNADFAEITKLATDLTKVNKECCHGDLLECADDRAELAKYMCENQATISSKLQTCCDKPLLKKAHCLSEVEHDTMPADLPAIAADFVEDQEVCKNYAEAKDVFLGTFLYEYSRRHPDYSVSLLLRLAKKYEATLEKCCAEANPPACYGTVLAEFQPLVEEPKNLVKTNCDLYEKLGEYGFQNAILVRYTQKAPQVSTPTLVEAARNLGRVGTKCCTLPEDQRLPCVEDYLSAILNRVCLLHEKTPVSEHVTKCCSGSLVERRPCFSALTVDETYVPKEFKAETFTFHSDICTLPEKEKQIKKQTALAELVKHKPKATAEQLKTVMDDFAQFLDTCCKAADKDTCFSTEGPNLVTRCKDALAGGGSVSDVPRDLEVVAATPTSLLISWCCSDNCSNSYRITYGETGGNSPVQEFTVPRSCFMATISGLKPGVDYTITAYAVTDSNGPHPISINYRTHHHHHH
binds: [10] | [2] | [11] | [12] | [13] | [4]

B4: Lumican-MSA-SpG2 (protein)
chain: QYYDYDIPLFMYGQISPNCAPECNCPHSYPTAMYCDDLKLKSVPMVPPGIKYLYLRNNQIDHIDEKAFENVTDLQWLILDHNLLENSKIKGKVFSKLKQLKKLHINYNNLTESVGPLPKSLQDLQLTNNKISKLGSFDGLVNLTFIYLQHNQLKEDAVSASLKGLKSLEYLDLSFNQMSKLPAGLPTSLLTLYLDNNKISNIPDEYFKRFTGLQYLRLSHNELADSGVPGNSFNISSLLELDLSYNKLKSIPTVNENLENYYLEVNELEKFDVKSFCKILGPLSYSKIKHLRLDGNPLTQSSLPPDMYECLRVANEITVNGGGSGGGSEAHKSEIAHRYNDLGEQHFKGLVLIAFSQYLQKCSYDEHAKLVQEVTDFAKTCVADESAANCDKSLHTLFGDKLCAIPNLRENYGELADCCTKQEPERNECFLQHKDDNPSLPPFERPEAEAMCTSFKENPTTFMGHYLHEVARRHPYFYAPELLYYAEQYNEILTQCCAEADKESCLTPKLDGVKEKALVSSVRQRMKCSSMQKFGERAFKAWAVARLSQTFPNADFAEITKLATDLTKVNKECCHGDLLECADDRAELAKYMCENQATISSKLQTCCDKPLLKKAHCLSEVEHDTMPADLPAIAADFVEDQEVCKNYAEAKDVFLGTFLYEYSRRHPDYSVSLLLRLAKKYEATLEKCCAEANPPACYGTVLAEFQPLVEEPKNLVKTNCDLYEKLGEYGFQNAILVRYTQKAPQVSTPTLVEAARNLGRVGTKCCTLPEDQRLPCVEDYLSAILNRVCLLHEKTPVSEHVTKCCSGSLVERRPCFSALTVDETYVPKEFKAETFTFHSDICTLPEKEKQIKKQTALAELVKHKPKATAEQLKTVMDDFAQFLDTCCKAADKDTCFSTEGPNLVTRCKDALAGGGSTYKLVINGKTLKGETTTEAVDAATAEKVFKQYANDYGVDGEWTYDDATKTFTVTEKPEVIDASELTPAVTTYKLVINGKTLKGETTTKAVDAETAEKAFKQYANDYGVDGVWTYDDATKTFTVTEHHHHHH
binds: [10] | [2] | [11] | [12] | [13] | [4]

B5: 4m5.3-MSA-Lumican (protein)
chain: ADVVMTQTPLSLPVSLGDQASISCRSSQSLVHSNGNTYLRWYLQKPGQSPKVLIYKVSNRVSGVPDRFSGSGSGTDFTLKINRVEAEDLGVYFCSQSTHVPWTFGGGTKLEIKSSADDAKKDAAKKDDAKKDDAKKDGGVKLDETGGGLVQPGGAMKLSCVTSGFTFGHYWMNWVRQSPEKGLEWVAQFRNKPYNYETYYSDSVKGRFTISRDDSKSSVYLQMNNLRVEDTGIYYCTGASYGMEYLGQGTSVTVSGGGSEAHKSEIAHRYNDLGEQHFKGLVLIAFSQYLQKCSYDEHAKLVQEVTDFAKTCVADESAANCDKSLHTLFGDKLCAIPNLRENYGELADCCTKQEPERNECFLQHKDDNPSLPPFERPEAEAMCTSFKENPTTFMGHYLHEVARRHPYFYAPELLYYAEQYNEILTQCCAEADKESCLTPKLDGVKEKALVSSVRQRMKCSSMQKFGERAFKAWAVARLSQTFPNADFAEITKLATDLTKVNKECCHGDLLECADDRAELAKYMCENQATISSKLQTCCDKPLLKKAHCLSEVEHDTMPADLPAIAADFVEDQEVCKNYAEAKDVFLGTFLYEYSRRHPDYSVSLLLRLAKKYEATLEKCCAEANPPACYGTVLAEFQPLVEEPKNLVKTNCDLYEKLGEYGFQNAILVRYTQKAPQVSTPTLVEAARNLGRVGTKCCTLPEDQRLPCVEDYLSAILNRVCLLHEKTPVSEHVTKCCSGSLVERRPCFSALTVDETYVPKEFKAETFTFHSDICTLPEKEKQIKKQTALAELVKHKPKATAEQLKTVMDDFAQFLDTCCKAADKDTCFSTEGPNLVTRCKDALAGGGSGGGSQYYDYDIPLFMYGQISPNCAPECNCPHSYPTAMYCDDLKLKSVPMVPPGIKYLYLRNNQIDHIDEKAFENVTDLQWLILDHNLLENSKIKGKVFSKLKQLKKLHINYNNLTESVGPLPKSLQDLQLTNNKISKLGSFDGLVNLTFIYLQHNQLKEDAVSASLKGLKSLEYLDLSFNQMSKLPAGLPTSLLTLYLDNNKISNIPDEYFKRFTGLQYLRLSHNELADSGVPGNSFNISSLLELDLSYNKLKSIPTVNENLENYYLEVNELEKFDVKSFCKILGPLSYSKIKHLRLDGNPLTQSSLPPDMYECLRVANEITVNGGGSHHHHHH
binds: [10] | [2] | [11] | [4]
